From paper PMC7145526, “The mRNA repressor TRIM71 cooperates with Nonsense-Mediated Decay factors to destabilize the mRNA of CDKN1A/p21”
Read-outs that look alike come from different tables or passages of the source. These are yes or no findings as the source states them, for the method shown. In cells and extracts the contact can be indirect. Some binding calls cover weakened binding; strength is not graded here. One block for each molecule: values may come before it.

Protein sequences, listed by entry. Tags and fused reporters are not part of them.
UniProt Q9UKV8: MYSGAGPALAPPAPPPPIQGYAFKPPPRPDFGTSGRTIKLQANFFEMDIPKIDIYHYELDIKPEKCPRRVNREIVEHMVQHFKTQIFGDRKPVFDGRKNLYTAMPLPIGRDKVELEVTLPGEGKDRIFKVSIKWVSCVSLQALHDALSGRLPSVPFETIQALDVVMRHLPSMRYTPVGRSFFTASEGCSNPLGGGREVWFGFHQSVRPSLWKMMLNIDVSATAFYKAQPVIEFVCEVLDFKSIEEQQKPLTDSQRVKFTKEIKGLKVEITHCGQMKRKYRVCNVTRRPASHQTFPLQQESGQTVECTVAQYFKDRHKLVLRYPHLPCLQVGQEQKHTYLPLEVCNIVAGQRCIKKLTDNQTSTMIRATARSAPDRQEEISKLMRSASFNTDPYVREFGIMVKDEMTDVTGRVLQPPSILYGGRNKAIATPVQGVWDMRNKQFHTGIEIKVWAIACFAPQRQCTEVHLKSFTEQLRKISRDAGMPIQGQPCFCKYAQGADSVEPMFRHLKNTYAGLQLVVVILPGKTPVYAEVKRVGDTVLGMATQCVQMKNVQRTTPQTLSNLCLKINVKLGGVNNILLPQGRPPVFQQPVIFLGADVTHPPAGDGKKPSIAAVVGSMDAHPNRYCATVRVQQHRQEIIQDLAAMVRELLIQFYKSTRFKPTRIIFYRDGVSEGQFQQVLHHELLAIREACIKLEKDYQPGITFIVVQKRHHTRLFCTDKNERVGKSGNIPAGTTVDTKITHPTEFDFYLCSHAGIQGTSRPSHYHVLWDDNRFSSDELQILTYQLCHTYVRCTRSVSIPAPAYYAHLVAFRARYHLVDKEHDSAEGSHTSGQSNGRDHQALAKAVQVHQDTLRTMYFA
UniProt Q96Q15: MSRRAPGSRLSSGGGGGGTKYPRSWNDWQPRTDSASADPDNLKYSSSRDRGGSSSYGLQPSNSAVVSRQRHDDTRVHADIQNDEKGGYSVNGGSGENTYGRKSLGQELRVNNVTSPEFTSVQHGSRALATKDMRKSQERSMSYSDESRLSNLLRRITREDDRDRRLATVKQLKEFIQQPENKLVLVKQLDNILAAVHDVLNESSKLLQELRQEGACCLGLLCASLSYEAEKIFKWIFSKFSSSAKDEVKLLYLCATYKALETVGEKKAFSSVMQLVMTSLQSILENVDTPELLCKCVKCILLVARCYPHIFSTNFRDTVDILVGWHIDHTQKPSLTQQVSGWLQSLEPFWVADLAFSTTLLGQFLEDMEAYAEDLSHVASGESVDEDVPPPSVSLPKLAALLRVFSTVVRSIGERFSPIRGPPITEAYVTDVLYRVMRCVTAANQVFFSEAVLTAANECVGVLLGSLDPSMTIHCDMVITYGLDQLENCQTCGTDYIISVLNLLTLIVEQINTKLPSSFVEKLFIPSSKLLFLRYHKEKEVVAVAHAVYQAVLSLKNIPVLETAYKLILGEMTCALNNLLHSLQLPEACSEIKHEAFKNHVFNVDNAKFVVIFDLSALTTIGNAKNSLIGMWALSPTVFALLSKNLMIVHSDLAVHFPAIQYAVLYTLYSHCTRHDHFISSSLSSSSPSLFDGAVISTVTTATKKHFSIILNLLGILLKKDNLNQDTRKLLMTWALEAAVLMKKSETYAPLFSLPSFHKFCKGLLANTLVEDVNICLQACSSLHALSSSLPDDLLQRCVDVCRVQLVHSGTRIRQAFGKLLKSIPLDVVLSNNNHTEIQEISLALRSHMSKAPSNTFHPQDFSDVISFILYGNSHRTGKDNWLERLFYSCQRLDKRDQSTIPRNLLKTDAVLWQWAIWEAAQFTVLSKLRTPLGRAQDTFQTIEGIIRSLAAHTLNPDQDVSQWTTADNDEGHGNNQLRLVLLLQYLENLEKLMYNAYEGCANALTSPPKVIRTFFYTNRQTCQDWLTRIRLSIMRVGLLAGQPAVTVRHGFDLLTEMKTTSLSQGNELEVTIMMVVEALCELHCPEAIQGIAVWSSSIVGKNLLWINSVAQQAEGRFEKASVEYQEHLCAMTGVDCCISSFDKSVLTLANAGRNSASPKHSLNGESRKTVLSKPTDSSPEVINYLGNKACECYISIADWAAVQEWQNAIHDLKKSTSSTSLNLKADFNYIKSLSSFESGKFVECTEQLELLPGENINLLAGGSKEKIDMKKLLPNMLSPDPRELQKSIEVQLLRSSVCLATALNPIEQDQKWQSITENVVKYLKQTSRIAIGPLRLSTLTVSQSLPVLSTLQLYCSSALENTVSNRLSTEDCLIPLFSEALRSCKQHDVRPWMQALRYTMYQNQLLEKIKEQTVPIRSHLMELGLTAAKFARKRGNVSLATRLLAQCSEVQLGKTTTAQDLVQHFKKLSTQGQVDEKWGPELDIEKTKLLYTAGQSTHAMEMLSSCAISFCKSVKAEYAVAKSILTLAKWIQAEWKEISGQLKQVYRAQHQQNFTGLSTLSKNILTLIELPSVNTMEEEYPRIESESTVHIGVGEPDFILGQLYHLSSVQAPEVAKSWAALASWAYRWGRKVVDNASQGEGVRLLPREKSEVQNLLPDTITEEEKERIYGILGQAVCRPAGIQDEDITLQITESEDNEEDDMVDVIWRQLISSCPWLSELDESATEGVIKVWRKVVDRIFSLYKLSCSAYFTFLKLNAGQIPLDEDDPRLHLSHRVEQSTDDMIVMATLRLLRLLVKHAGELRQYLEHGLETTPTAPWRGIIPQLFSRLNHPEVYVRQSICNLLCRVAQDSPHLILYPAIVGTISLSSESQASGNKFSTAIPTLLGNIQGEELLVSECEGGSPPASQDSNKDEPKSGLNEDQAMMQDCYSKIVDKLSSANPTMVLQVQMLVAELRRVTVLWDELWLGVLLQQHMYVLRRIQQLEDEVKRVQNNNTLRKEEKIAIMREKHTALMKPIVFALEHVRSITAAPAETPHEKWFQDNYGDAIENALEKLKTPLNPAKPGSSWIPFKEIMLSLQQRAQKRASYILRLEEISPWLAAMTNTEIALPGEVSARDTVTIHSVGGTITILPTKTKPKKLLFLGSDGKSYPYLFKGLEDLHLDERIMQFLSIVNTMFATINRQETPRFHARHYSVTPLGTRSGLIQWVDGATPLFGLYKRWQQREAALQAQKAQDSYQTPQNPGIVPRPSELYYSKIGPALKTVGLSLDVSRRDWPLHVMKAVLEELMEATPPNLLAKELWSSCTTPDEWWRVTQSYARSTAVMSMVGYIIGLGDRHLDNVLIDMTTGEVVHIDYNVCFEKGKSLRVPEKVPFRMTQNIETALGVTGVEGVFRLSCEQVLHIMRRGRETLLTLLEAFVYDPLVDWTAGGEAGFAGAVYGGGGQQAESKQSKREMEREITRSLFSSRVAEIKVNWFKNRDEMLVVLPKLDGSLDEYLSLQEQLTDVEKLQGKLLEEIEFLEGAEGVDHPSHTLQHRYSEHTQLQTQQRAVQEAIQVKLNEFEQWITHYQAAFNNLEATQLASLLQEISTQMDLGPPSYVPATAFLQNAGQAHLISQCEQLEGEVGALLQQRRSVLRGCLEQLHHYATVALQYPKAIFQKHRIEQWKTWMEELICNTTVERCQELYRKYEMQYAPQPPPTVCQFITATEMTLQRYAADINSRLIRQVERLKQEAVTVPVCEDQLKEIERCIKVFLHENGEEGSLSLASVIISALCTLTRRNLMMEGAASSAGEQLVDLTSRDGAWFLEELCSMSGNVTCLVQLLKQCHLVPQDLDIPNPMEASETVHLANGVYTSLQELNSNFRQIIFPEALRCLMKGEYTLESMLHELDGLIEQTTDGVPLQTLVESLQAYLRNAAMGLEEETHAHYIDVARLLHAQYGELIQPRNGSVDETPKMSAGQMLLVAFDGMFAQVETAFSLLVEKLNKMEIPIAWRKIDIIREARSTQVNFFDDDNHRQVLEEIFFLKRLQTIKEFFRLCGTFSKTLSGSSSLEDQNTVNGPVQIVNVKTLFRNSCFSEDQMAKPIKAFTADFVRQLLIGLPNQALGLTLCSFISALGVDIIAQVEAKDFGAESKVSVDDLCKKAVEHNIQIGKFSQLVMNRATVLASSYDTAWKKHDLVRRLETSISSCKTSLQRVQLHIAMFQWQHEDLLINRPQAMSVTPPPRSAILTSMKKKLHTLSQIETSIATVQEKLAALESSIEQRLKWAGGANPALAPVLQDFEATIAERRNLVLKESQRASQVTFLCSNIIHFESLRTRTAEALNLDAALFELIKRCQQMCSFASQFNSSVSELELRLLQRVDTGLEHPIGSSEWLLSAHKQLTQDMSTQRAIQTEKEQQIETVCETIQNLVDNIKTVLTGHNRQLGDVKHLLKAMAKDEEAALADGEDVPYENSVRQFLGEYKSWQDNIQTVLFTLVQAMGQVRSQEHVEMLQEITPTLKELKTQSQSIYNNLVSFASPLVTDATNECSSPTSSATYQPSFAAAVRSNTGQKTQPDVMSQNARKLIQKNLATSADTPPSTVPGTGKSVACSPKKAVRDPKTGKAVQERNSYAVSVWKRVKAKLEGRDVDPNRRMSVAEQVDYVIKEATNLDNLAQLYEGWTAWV

Legend:
Ig-TRIM71 (human) [1] = biological target: T1, Ig-TRIM71 (human) (UniProt Q2Q1W2); assay: co-IP; Ig-TRIM71 overexpressed in HEK293T, precipitated with Protein G Dynabeads (6 h, 4°C; IP buffer: 10 mM HEPES pH 7.5, 2 mM MgCl2, 10 mM KCl, 0.5% NP-40, 0.5 mM EDTA, 150 mM NaCl, 1 mM DTT); partners found by western blot
T1 sequence: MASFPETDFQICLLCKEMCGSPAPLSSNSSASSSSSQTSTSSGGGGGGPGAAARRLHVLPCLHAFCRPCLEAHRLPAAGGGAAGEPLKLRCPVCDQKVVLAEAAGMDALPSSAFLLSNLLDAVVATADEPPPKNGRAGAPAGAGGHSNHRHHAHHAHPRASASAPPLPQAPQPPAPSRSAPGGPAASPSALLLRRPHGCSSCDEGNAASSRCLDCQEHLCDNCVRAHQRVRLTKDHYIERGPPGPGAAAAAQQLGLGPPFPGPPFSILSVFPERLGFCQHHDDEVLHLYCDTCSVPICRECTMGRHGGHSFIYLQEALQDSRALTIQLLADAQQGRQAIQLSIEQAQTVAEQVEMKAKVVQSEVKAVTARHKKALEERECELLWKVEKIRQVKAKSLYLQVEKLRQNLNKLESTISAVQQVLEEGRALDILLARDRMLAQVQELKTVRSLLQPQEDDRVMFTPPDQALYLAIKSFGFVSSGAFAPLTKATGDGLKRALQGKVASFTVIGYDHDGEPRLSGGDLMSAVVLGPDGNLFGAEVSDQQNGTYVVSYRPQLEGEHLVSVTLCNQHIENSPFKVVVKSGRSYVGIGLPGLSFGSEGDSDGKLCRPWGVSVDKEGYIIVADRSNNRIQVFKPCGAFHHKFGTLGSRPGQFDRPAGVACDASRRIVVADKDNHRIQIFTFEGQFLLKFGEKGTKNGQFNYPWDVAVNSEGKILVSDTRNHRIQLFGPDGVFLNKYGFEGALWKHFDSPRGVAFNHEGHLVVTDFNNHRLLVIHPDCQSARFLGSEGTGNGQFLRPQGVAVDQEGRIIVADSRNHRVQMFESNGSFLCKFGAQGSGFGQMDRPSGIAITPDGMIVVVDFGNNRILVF

[2] = biological target: T2, endogenous SMG7 (HepG2) (human (endogenous in HepG2)) (UniProt Q92540); assay: co-IP; endogenous SMG7 precipitated from HepG2 lysate with antibody pre-coupled to Protein G Dynabeads; western blot
T2 sequence: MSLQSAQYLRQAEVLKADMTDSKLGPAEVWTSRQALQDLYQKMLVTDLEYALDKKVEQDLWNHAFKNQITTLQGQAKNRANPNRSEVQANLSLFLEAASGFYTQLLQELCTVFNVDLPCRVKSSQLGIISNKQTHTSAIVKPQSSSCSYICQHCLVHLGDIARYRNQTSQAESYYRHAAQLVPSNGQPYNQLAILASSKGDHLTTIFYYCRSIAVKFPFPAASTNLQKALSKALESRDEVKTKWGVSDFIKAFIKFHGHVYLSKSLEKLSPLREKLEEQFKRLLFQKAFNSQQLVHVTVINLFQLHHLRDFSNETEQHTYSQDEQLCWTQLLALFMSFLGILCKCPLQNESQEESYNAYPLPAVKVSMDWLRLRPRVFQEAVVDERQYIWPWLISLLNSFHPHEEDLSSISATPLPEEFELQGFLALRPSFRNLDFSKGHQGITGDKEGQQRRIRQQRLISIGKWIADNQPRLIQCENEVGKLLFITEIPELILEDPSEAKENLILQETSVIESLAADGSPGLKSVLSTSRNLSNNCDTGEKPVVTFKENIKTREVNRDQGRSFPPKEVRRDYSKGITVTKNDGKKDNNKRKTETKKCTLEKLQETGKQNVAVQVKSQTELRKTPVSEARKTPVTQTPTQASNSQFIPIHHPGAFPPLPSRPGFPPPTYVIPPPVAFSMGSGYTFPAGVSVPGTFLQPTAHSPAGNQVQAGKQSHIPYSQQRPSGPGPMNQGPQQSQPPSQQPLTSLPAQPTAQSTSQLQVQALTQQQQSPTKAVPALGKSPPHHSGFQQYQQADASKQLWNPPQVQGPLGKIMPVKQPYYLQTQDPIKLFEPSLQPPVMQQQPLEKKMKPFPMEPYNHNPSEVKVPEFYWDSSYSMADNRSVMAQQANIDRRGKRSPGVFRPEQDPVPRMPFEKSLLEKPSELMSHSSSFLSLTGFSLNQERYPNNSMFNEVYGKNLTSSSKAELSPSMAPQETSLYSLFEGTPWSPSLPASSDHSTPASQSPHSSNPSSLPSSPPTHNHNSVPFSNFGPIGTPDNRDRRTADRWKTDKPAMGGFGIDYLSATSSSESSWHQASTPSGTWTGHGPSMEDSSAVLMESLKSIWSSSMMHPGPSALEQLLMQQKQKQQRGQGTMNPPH

Ig-TRIM71 (human) [3] = biological target: T1, Ig-TRIM71 (human); assay: co-IP; Ig-TRIM71 overexpressed in HEK293T, precipitated with Protein G Dynabeads (6 h, 4°C; IP buffer: 10 mM HEPES pH 7.5, 2 mM MgCl2, 10 mM KCl, 0.5% NP-40, 0.5 mM EDTA, 150 mM NaCl, 1 mM DTT); partners found by western blot; remark: listed apart in the source

binding (Ig-TRIM71 (human) [1]): binds
Molecule: AGO2 (from UniProt Q9UKV8 1-859)

binding [2]: binds
Molecule: SMG1 (HepG2) (from UniProt Q96Q15 1-3661)

binding (Ig-TRIM71 (human) [3]): binds
B1: SMG7 (protein, UniProt Q92540 1-1137)
chain: T2 sequence

binding [2]: binds
B2: UPF1 (HepG2) (protein, UniProt Q92900 1-1129)
chain: MSVEAYGPSSQTLTFLDTEEAELLGADTQGSEFEFTDFTLPSQTQTPPGGPGGPGGGGAGGPGGAGAGAAAGQLDAQVGPEGILQNGAVDDSVAKTSQLLAELNFEEDEEDTYYTKDLPIHACSYCGIHDPACVVYCNTSKKWFCNGRGNTSGSHIVNHLVRAKCKEVTLHKDGPLGETVLECYNCGCRNVFLLGFIPAKADSVVVLLCRQPCASQSSLKDINWDSSQWQPLIQDRCFLSWLVKIPSEQEQLRARQITAQQINKLEELWKENPSATLEDLEKPGVDEEPQHVLLRYEDAYQYQNIFGPLVKLEADYDKKLKESQTQDNITVRWDLGLNKKRIAYFTLPKTDSGNEDLVIIWLRDMRLMQGDEICLRYKGDLAPLWKGIGHVIKVPDNYGDEIAIELRSSVGAPVEVTHNFQVDFVWKSTSFDRMQSALKTFAVDETSVSGYIYHKLLGHEVEDVIIKCQLPKRFTAQGLPDLNHSQVYAVKTVLQRPLSLIQGPPGTGKTVTSATIVYHLARQGNGPVLVCAPSNIAVDQLTEKIHQTGLKVVRLCAKSREAIDSPVSFLALHNQIRNMDSMPELQKLQQLKDETGELSSADEKRYRALKRTAERELLMNADVICCTCVGAGDPRLAKMQFRSILIDESTQATEPECMVPVVLGAKQLILVGDHCQLGPVVMCKKAAKAGLSQSLFERLVVLGIRPIRLQVQYRMHPALSAFPSNIFYEGSLQNGVTAADRVKKGFDFQWPQPDKPMFFYVTQGQEEIASSGTSYLNRTEAANVEKITTKLLKAGAKPDQIGIITPYEGQRSYLVQYMQFSGSLHTKLYQEVEIASVDAFQGREKDFIILSCVRANEHQGIGFLNDPRRLNVALTRARYGVIIVGNPKALSKQPLWNHLLNYYKEQKVLVEGPLNNLRESLMQFSKPRKLVNTINPGARFMTTAMYDAREAIIPGSVYDRSSQGRPSSMYFQTHDQIGMISAGPSHVAAMNIPIPFNLVMPPMPPPGYFGQANGPAAGRGTPKGKTGRGGRQKNRFGLPGPSQTNLPNSQASQDVASQPFSQGALTQGYISMSQPSQMSQPGLSQPELSQDSYLGDEFKSQIDVALSQDSTYQGERAYQHGGVTGLSQY
